Data source: PubChem BioAssay AID504744 (Drosophila RNAi Screening Center, 2011)

- Test: 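Uncover factors, including feedback loops, that control dAkt activation in fly cells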 (primary screen)
- Cells: Drosophila Kc167 cells
- Reagent: long dsRNA against Drosophila genes, 250 ng dsRNA per well of a 384-well plate
- Timing: 3 days of knock-down, then overnight serum-free starvation before stimulation
- Conditions: bovine insulin at 387 nM for 10 minutes after 12 h without serum
- Measured: 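In-cell antibody fluorescence for phospho-dAkt in each well over DNA-dye signal, with log2 residuals expressed as z-scores adjusted for cell count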
- Call rule: 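Hit in the insulin screen when the two-replicate mean z-score is more extreme than plus or minus 2.5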
The screen tested about 23,000 reagents; shown is a random part of those with a known target gene and a result. Of all reagents, 98 (0.43%) were called active. 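Only hit calls are given; the phospho-dAkt signals, z-scores and hit direction were not deposited.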

The opening 3 entries, to show the layout:
target | PubChem SID | Outcome
Cth (Cystathionine gamma-lyase) | SID104187214 | inactive
CG12091 | SID104188043 | inactive
PGRP-SC1a (Peptidoglycan recognition protein SC1a) | SID104186274 | inactive

The list itself, from the first entry:
target | PubChem SID | Outcome
Cth (Cystathionine gamma-lyase) | SID104187214 | inactive
CG12091 | SID104188043 | inactive
PGRP-SC1a (Peptidoglycan recognition protein SC1a) | SID104186274 | inactive
ZnT41F (Zinc transporter 41F) | SID104184642 | inactive
CG17660 | SID104180305 | inactive
CG11470 | SID104194105 | inactive
CG4465 | SID104195376 | inactive
CG18545 | SID104195135 | inactive
CG12341 | SID104185925 | inactive
CG17287 | SID104186451 | inactive
Cdk7 (Cyclin-dependent kinase 7) | SID104198243 | inactive
cpx (complexin) | SID104191791 | inactive
CG42240 | SID104197889 | inactive
ctp (cut up) | SID104198550 | inactive
sov (small ovary) | SID104197722 | inactive
CG8046 | SID104186851 | inactive
Arv1 (ACAT-related protein required for viability 1) | SID104191283 | inactive
ari-2 (ariadne 2) | SID104184464 | inactive
CG7886 | SID104196125 | inactive
CG14223 | SID104199372 | inactive
dnd (dead end) | SID104195856 | inactive
CG6462 | SID104190433 | inactive
nuf (nuclear fallout) | SID104191171 | active
nuf (nuclear fallout) | SID104201967 | inactive
CG14630 | SID104197958 | inactive
CG14630 | SID104198445 | inactive
CG31446 | SID104192903 | inactive
mRpS35 (mitochondrial ribosomal protein S35) | SID104188343 | inactive
CG4836 | SID104195451 | inactive
CG5386 | SID104195580 | inactive
grau (grauzone) | SID104184483 | inactive
CG4972 | SID104182590 | inactive
CG9393 | SID104196278 | inactive
CG32313 | SID104201191 | inactive
CG33128 | SID104180086 | inactive
Rgk3 (Rad, Gem/Kir family member 3) | SID104184042 | inactive
Rgk3 (Rad, Gem/Kir family member 3) | SID104184043 | inactive
Rgk3 (Rad, Gem/Kir family member 3) | SID104184046 | inactive
Rgk3 (Rad, Gem/Kir family member 3) | SID104184047 | inactive
Tbc1d15-17 (TBC1 domain family member 15/17) | SID104180105 | inactive
Polr2A (RNA polymerase II subunit A) | SID104200072 | inactive
CkIIbeta2 (Casein kinase II beta2 subunit) | SID104187153 | inactive
CG34232 | SID104185124 | inactive
CG17169 | SID104200697 | inactive
Pgk (Phosphoglycerate kinase) | SID104180561 | inactive
CG31462 (retired record) | SID104194151 | inactive
Liprin-gamma | SID104183885 | inactive
ppk31 (pickpocket 31) | SID104193603 | inactive
Naa30B (N(alpha)-acetyltransferase 30 B) | SID104188037 | inactive
CrzR (Corazonin receptor) | SID104189573 | inactive
CrzR (Corazonin receptor) | SID104189574 | inactive
MED6 (Mediator complex subunit 6) | SID104196292 | inactive
Orcokinin | SID104183994 | inactive
unc-119 | SID104198638 | inactive
AsnRS-m (Asparaginyl-tRNA synthetase, mitochondrial) | SID104186802 | inactive
CG13465 | SID104189803 | inactive
CG3632 | SID104198929 | inactive
CG3632 | SID104199663 | inactive
GluClalpha (Glutamate-gated chloride channel subunit alpha) | SID104196472 | inactive
puc (puckered) | SID104196826 | inactive
CG14974 | SID104188225 | inactive
mRpS29 (mitochondrial ribosomal protein S29) | SID104184190 | inactive
Septin1 (Septin 1) | SID104200365 | inactive
Kaz-m1 (Kazal-type protease inhibitor m1) | SID104196782 | inactive
